Earlier results, collected in US4229477A, “Pharmaceutical compositions containing bromhexine and method of treating diabetic nephropathy therewith” (Boehringer Ingelheim GmbH, priority 1978, dated 1980).
At least one read-out could not be matched to a standard name with certainty.

System: mice
Conditions: British Pat. No. 968,254; cited from earlier work

## CN(Cc1cc(Br)cc(Br)c1N)C1CCCCC1.Cl [bromhexine, N-(2-amino-3,5-dibromo-benzyl)-N-methyl-cyclohexylammonium chloride]
  acute oral toxicity: > 3 gm/Kg
